Assay results from article PMC8373142.
Positions count from the first letter of the chain named. Numbers in names are those of the source. These are yes or no findings as the source states them, for the method shown. Binding seen in cells or lysates may run through a third protein. Some binding calls cover weakened binding; strength is not graded here. Tags and fused reporters may be left off the sequences shown. Each block holds one binder with its values, some of them ahead of it.

Molecular target: T1, Tpk1, chromosomal TAP-fusion (S. cerevisiae) (UniProt P06244)
T1 sequence: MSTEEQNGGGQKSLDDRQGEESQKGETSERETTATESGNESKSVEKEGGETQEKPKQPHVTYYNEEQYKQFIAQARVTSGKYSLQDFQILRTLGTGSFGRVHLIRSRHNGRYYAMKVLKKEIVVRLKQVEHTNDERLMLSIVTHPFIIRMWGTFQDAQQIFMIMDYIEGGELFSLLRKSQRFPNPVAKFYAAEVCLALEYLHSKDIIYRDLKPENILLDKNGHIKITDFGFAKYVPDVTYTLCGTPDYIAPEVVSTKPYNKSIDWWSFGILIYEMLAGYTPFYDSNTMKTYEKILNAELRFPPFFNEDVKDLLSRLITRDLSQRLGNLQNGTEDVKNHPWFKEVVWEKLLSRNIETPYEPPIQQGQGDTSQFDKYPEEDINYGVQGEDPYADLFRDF
Assay: co-IP; chromosomal TAP-fusion of Tpk1 precipitated with calmodulin beads from yeast extracts with exogenous HA-tagged Nej1 (wild-type, S298A, S298E) or Dun1; blot anti-HA; no detergent in the buffer, gentle disruption with glass beads; cells treated with or without bleomycin

binding: binds
B1: HA-tagged Dun1 (enzyme, UniProt P39009 1-513)
chain: MSLSTKREHSGDVTDSSFKRQQRSNKPSSEYTCLGHLVNLIPGKEQKVEITNRNVTTIGRSRSCDVILSEPDISTFHAEFHLLQMDVDNFQRNLINVIDKSRNGTFINGNRLVKKDYILKNGDRIVFGKSCSFLFKYASSSSTDIENDDEKVSSESRSYKNDDEVFKKPQISATSSQNATTSAAIRKLNKTRPVSFFDKYLLGKELGAGHYALVKEAKNKKTGQQVAVKIFHAQQNDDQKKNKQFREETNILMRVQHPNIVNLLDSFVEPISKSQIQKYLVLEKIDDGELFERIVRKTCLRQDESKALFKQLLTGLKYLHEQNIIHRDIKPENILLNITRRENPSQVQLGPWDEDEIDIQVKIADFGLAKFTGEMQFTNTLCGTPSYVAPEVLTKKGYTSKVDLWSAGVILYVCLCGFPPFSDQLGPPSLKEQILQAKYAFYSPYWDKIDDSVLHLISNLLVLNPDERYNIDEALNHPWFNDIQQQSSVSLELQRLQITDNKIPKTYSELSCL

binding: binds
B2: HA-tagged Nej1 S298E (protein, UniProt Q06148 1-342)
chain: MDSELKGQQLSDAEWCVKKINGEGNCLLLFLPMSSPTTIVMIVLVSLERLVPYVFKLSQTQLSQQCQSQGFTDSISLNLIKLKLMDILQAPQEINQIGLVDSNLVFSFDVSADITVSINSVPSHVTKDMFYMILQSLCMLLLKLVNLSTQYHYVQRDILNEKQKCLDFLLISLRDLDGGSKVISQWAPENSKNYESLQQCTDDDIIKKLLHKGKFQHQEFLADSLKTLLSLRNKFQDVSRFEESGELNKKERVRFPAVNHFYNDDFELQADPTNEARPNSRGKIKPKTDFKPKSRESETSSQLRLENFSESEATPEKTKSSSSLVEEYPQKKRKFGKVRIKN

binding: binds
B3: HA-tagged Nej1 S298A (protein, UniProt Q06148 1-342)
chain: B2 chain with E298A
